This passage reports binding results from patent US20210139935A1.

No constants are given. Whether binding was seen depends on the method and setting. Some binding calls cover weakened binding; strength is not graded here.

The target in this assay is T1, human CD70 (human) (UniProt P32970).
T1 sequence (looked up): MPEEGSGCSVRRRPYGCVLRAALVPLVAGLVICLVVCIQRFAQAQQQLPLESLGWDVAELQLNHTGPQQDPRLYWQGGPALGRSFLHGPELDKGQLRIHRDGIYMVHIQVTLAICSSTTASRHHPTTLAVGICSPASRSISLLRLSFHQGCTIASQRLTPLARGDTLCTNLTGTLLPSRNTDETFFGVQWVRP
In words: immunohistochemistry on a panel of 32 human tissues, antibody at 2.5 µg/mL and 10.0 µg/mL; robust staining in the positive control (human renal cell carcinoma tumor cells).

B1: the antibody from which the scFv portion of CTX130 was derived (antibody, V domains shown)
VH: QVQLVQSGAEVKKPGASVKVSCKASGYTFTNYGMNWVRQAPGQGLKWMGWINTYTGEPTYADAFKGRVTMTRDTSISTAYMELSRLRSDDTAVYYCARDYGDYGMDYWGQGTTVTVSS
VL: DIVMTQSPDSLAVSLGERATINCRASKSVSTSGYSFMHWYQQKPGQPPKLLIYLASNLESGVPDRFSGSGSGTDFTLTISSLQAEDVAVYYCQHSREVPWTFGQGTKVEIK
On to B1, for which the binding result is “binds”.
